Source: publication PMC10634091
The exact form of at least one protein or probe is not confirmed. Results from cells or extracts need not show a direct contact. At least one verdict was read from the data and is not stated in words by the source.

Chains of the proteins cited; added tags and fusions are not shown. Residues count along the entry.
UniProt Q13308, 31-1070: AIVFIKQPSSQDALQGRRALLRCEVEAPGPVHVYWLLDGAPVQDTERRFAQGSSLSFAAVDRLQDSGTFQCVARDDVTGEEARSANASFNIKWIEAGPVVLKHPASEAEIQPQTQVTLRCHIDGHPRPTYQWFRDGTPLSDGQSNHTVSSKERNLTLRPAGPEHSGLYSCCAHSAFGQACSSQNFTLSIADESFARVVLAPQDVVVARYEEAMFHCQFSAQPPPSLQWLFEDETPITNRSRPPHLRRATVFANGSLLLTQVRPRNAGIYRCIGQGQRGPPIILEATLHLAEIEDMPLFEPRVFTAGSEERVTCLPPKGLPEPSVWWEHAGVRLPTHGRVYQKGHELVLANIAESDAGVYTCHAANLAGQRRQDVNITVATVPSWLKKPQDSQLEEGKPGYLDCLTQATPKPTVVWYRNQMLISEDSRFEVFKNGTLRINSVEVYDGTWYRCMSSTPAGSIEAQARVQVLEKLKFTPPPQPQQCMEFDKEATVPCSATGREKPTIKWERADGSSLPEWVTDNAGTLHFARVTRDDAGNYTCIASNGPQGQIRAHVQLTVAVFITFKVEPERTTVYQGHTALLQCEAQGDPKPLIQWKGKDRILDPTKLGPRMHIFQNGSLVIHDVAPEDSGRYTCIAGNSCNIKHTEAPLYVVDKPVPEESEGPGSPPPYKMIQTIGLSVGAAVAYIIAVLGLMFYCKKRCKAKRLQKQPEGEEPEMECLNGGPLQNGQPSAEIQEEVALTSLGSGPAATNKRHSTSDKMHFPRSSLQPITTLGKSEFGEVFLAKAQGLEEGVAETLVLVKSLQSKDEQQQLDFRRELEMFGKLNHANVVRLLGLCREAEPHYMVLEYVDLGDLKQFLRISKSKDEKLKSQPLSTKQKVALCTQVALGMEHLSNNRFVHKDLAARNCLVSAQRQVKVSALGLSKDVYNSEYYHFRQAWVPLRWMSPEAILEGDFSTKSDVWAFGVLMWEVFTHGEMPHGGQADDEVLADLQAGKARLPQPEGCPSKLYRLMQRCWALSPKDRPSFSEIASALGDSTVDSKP

Target: PTK7 (membrane protein on HeLa cells) (human (HeLa cells)) (UniProt Q13308)
Experiment: flow cytometry and confocal microscopy on cells
Settings: 200 nM (printed 200 nmol), no binding to Ramos cells, 5' amino coupled to poly(maleic anhydride-alt-1-octadecene), multivalent micelle, Intact cells, 200 uL of 200 nM (printed 200 nmol) FITC-labelled aptamer, 1 h at 4 C in the dark, buffer and pH not stated, protein on the cell surface, label: 3' FITC, single-stranded DNA

Sequence: ATCTAACTGCTGCGCCGCCGGGAAAATACTGTACGGTTAGA [C18-sgc8-FITC (C18PMH-sgc8 micelle)]
- binding result: binds
